Substitutions are numbered along the chain they refer to. Results are given in words; binding and its absence hold for the method and conditions named. Some binding calls cover weakened binding; strength is not graded here.
B1: Trypsin 1/Trypsin 2-Dual-L2-Ab3 (antibody, V domains shown)
VH: QVQLQESGPGLVKPSETLSLTCTVSGGSISSHYWHWIRQPAGKGLEWIGRIATSGSTYYNPSLKSRVTMSVDTSKNQFSLKLSSVTAADTAVYYCARDLTNYGITKSIRFYGMDVWGQGTTVTVSS
VL: DIQMTQSPSSLSASVGDRVTITCQASQDISNYLNWYQQKPGKAPKLLIYDASNLETGVPSRFSGSGSGTDFTFTISSLQPEDIATYYCQQVDNFITFGGGTKVEIK
B2: Trypsin 1/Trypsin 2-Dual-L2-Ab1 (antibody, V domains shown)
VH: B1 VH with H32Y, H35S, A52Y, Y58N, I104S, T105G
VL: B1 VL with V91D
B3: Trypsin 1/Trypsin 2-Dual-L2-Ab2 (antibody, V domains shown)
VH: B1 VH with H32N, A52H, Y58F, L99I, I104S, T105G, G112P
VL: B1 VL with V91D, N93T
B4: Trypsin 1/Trypsin 2-Dual-L2-Ab4 (antibody, V domains shown)
VH: B1 VH with A52H, Y58F, I104W, T105S
VL: B1 VL with V91T
B5: Trypsin 1/Trypsin 2-Dual-L3-Ab2 (antibody, V domains shown)
VH: QVQLVQSGAEVKKPGASVKVSCKASGYTFTDHYMHWVRQAPGQGLEWMGAINPSSGGTAYAQKFQGRVTMTRDTSISTAYMELSRLRSDDTAVYYCARVGGAARVGKAYTASAFDIWGQGTMVTVSS
VL: EIVMTQSPATLSVSPGERATLSCRASQSVGSNLAWYQQKPGQAPRLLIYGASTRATGIPARFSGSGSGTEFTLTISSLQSEDFAVYYCQQFHNWPPLTFGGGTKVEIK
B6: Trypsin 1/Trypsin 2-Dual-L5-Ab2 (antibody, V domains shown)
VH: QVQLVQSGAEVKKPGASVKVSCKASGYTFEGHYMHWVRQAPGQGLEWMGAINPYSGQTNYAQKFQGRVTMTRDTSISTAYMELSRLRSDDTAVYYCARDFVLLLRQSRILHESAFDIWGQGTTVTVSS
VL: B5 VL
B7: Trypsin 1/Trypsin 2-Dual-L1-Ab1 (antibody, V domains shown)
VH: EVQLLESGGGLVQPGGSLRLSCAASGFTFSSYAMSWVRQAPGKGLEWVSAISASGGSTYYADSVKGRFTISRDNSKNTLYLQMNSLRAEDTAVYYCARGSPIGYSYARVSYYYYMDVWGKGTTVTVSS
VL: DIQMTQSPSSVSASVGDRVTITCRASQGISRWLAWYQQKPGKAPKLLIYAASSLQSGVPSRFSGSGSGTDFTLTISSLQPEDFATYYCQQGNSFPLTFGGGTKVEIK
B8: Trypsin 1/Trypsin 2-Dual-L4-Ab1 (antibody, V domains shown)
VH: QVQLVQSGAEVKKPGASVKVSCKASGYTFTSYGISWVRQAPGQGLEWMGWISAYSGDTNYAQKLQGRVTMTTDTSTSTAYMELRSLRSDDTAVYYCARGDEVVGKMTYYYGMDVWGQGTTVTVSS
VL: B7 VL with G91A, L96I
B9: Trypsin 1/Trypsin 2-Dual-L1-Ab2 (antibody, V domains shown)
VH: B7 VH with S30G, S31D, S35W, G56D, S57V, P101L, M115S
VL: B7 VL with N92W
B10: Trypsin 1/Trypsin 2-Dual-L4-Ab4 (antibody, V domains shown)
VH: B8 VH with S31D, G33A, Y54S, S55T, G56A, D100T, Y108V, Y110L
VL: B7 VL with G91A, L96I
B11: Trypsin 1/Trypsin 2-Dual-L4-Ab3 (antibody, V domains shown)
VH: B8 VH with S31D, G33A, Y54S, S55T, G56A, M106R, Y110I
VL: B7 VL with G91A, L96I
B12: Trypsin 1/Trypsin 2-Dual-L4-Ab2 (antibody, V domains shown)
VH: B8 VH with S31D, G33A, Y54S, S55T, G56A
VL: B7 VL with G91A, L96I

Chains of the proteins cited; added tags and fusions are not shown. Lines headed by an entry give the natural chain unless they say otherwise; changes in a name come on top.
UniProt P07477: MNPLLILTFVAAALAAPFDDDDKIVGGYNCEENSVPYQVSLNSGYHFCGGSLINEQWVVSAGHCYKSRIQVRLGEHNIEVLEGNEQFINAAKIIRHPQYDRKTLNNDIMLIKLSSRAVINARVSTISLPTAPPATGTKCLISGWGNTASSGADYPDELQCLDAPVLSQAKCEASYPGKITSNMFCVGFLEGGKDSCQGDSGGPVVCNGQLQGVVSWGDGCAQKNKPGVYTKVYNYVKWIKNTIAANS
UniProt P07478: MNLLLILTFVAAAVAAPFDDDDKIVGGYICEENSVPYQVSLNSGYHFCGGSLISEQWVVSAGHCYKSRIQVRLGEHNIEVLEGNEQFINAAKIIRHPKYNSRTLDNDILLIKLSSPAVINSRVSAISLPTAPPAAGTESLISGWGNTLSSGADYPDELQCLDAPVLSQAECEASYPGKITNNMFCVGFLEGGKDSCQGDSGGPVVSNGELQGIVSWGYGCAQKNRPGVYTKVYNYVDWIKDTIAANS

biological target: human trypsin 1 with serine to alanine mutation (including a His tag at C terminus) (human) (UniProt P07477); test: SPR (Biacore) screen

binding	Binder
binds	B1

biological target: human trypsin 2 with serine to alanine mutation (including a His tag at C terminus) (human) (UniProt P07478); test: SPR (Biacore) screen

binding	Binder
binds	B2
binds	B1
binds	B3
binds	B4
binds	B5
binds	B6
binds	B7
binds	B8
binds	B9
binds	B10
binds	B11
binds	B12
